This passage reports binding results from PMC12884792.

Sequences of proteins named here, by UniProt entry; tags and fusion partners are left off.
UniProt Q92830: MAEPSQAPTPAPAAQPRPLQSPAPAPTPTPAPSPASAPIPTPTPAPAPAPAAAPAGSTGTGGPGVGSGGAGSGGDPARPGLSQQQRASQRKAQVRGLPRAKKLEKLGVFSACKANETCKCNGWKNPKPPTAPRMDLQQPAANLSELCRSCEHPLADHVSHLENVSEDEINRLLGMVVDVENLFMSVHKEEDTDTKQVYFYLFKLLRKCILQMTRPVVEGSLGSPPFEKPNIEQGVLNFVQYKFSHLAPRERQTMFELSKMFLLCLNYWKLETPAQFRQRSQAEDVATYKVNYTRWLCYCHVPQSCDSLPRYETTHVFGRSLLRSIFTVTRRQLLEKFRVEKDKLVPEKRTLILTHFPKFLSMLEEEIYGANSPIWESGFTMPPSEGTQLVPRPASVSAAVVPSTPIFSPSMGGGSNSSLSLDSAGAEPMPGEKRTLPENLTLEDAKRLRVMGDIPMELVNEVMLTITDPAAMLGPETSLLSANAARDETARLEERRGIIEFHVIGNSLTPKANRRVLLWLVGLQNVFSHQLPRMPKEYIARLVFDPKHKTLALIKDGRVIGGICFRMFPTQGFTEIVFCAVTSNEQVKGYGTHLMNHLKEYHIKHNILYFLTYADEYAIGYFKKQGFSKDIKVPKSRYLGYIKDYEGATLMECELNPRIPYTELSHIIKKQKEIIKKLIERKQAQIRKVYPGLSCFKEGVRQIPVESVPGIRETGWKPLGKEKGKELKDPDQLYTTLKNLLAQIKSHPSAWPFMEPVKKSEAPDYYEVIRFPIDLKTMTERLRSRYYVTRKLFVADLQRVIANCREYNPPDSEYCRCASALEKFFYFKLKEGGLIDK

For test [1], the target named is B lymphocyte-induced maturation protein 1 (Blimp-1), endogenous in T cells (human (endogenous in primary CD8+ T cells)) (UniProt O75626). As to the kind of experiment: co-IP; endogenous proteins in lysates of ex vivo induced human CD8+CD103+ T cells, with or without CSC pretreatment; lysis in 150 mM NaCl, 50 mM Tris-HCl, 10% glycerol, 0.5-1% Triton X-100; antibody and protein A/G beads overnight at 4 °C; immunoblot.

Substrate in test [2]: B lymphocyte-induced maturation protein 1 (Blimp-1), endogenous in T cells (human (endogenous in primary CD8+ T cells)) (UniProt O75626)
Described as above. This is another data set of the same source.

For a further test, the target named is Flag-Blimp-1 K128R (UniProt O75626). In words: co-IP; HEK293T cells transfected with Blimp-1 (WT or K128R), with or without acetate (15 mM) or shGCN5; lysis in 150 mM NaCl, 50 mM Tris-HCl, 10% glycerol, 0.5-1% Triton X-100; immunoblot. On the technique in general: Immunoblotting shows a protein as a band on a membrane.
A further test deals with Flag-Blimp-1 (WT) (UniProt O75626). The description is as above.

Like-named read-outs stand apart in the source and are kept apart here. Results are given in words; binding and its absence hold for the method and conditions named. Binding seen in cells or lysates may run through a third protein. Some results given as binding are weak or reduced against the parent protein; the word gives no strength.

Turning to “HDAC5, endogenous in T cells (from UniProt Q9UQL6 1-1122) (enzyme)”, in test [1], the binding result is on record as “binds”.
Still for that read-out and setting: with “GCN5, endogenous in T cells (from UniProt Q92830 1-837) (enzyme)” the entry was “binds”.

B1: LIS1, endogenous in T cells (protein, UniProt P43034 1-410)
chain: MVLSQRQRDELNRAIADYLRSNGYEEAYSVFKKEAELDVNEELDKKYAGLLEKKWTSVIRLQKKVMELESKLNEAKEEFTSGGPLGQKRDPKEWIPRPPEKYALSGHRSPVTRVIFHPVFSVMVSASEDATIKVWDYETGDFERTLKGHTDSVQDISFDHSGKLLASCSADMTIKLWDFQGFECIRTMHGHDHNVSSVAIMPNGDHIVSASRDKTIKMWEVQTGYCVKTFTGHREWVRMVRPNQDGTLIASCSNDQTVRVWVVATKECKAELREHEHVVECISWAPESSYSSISEATGSETKKSGKPGPFLLSGSRDKTIKMWDVSTGMCLMTLVGHDNWVRGVLFHSGGKFILSCADDKTLRVWDYKNKRCMKTLNAHEHFVTSLDFHKTAPYVVTGSVDQTVKVWECR
For the molecule B1, the binding entry in test [2] is listed as “binds”.

B2: LIS1 in HEK293T cells (protein, UniProt P43034 1-410)
chain: MVLSQRQRDELNRAIADYLRSNGYEEAYSVFKKEAELDVNEELDKKYAGLLEKKWTSVIRLQKKVMELESKLNEAKEEFTSGGPLGQKRDPKEWIPRPPEKYALSGHRSPVTRVIFHPVFSVMVSASEDATIKVWDYETGDFERTLKGHTDSVQDISFDHSGKLLASCSADMTIKLWDFQGFECIRTMHGHDHNVSSVAIMPNGDHIVSASRDKTIKMWEVQTGYCVKTFTGHREWVRMVRPNQDGTLIASCSNDQTVRVWVVATKECKAELREHEHVVECISWAPESSYSSISEATGSETKKSGKPGPFLLSGSRDKTIKMWDVSTGMCLMTLVGHDNWVRGVLFHSGGKFILSCADDKTLRVWDYKNKRCMKTLNAHEHFVTSLDFHKTAPYVVTGSVDQTVKVWECR
Regarding B2, the binding entry with Flag-Blimp-1 K128R and with Flag-Blimp-1 (WT) was “binds” throughout.
